These are yes or no findings as the source states them, for the method shown. In cells and extracts the contact can be indirect. Some entries that bind do so weakly or less than the wild type.
Target: mouse full-length HTT (huntingtin) (mouse) (UniProt P42859)
Test: co-IP; mouse brain lysate, 1 mg of protein per IP, primary antibody 1:1,000, Dynabeads sheep anti-rabbit or goat anti-mouse, 1 h at room temperature; 3x high-salt wash (1 M NaCl, 1% NP-40, 0.1% SDS, 0.5% sodium deoxycholate), 2x low-salt wash; immunoblot

Sequences of proteins named here, by UniProt entry; tags and fusion partners are left off.
UniProt P42859: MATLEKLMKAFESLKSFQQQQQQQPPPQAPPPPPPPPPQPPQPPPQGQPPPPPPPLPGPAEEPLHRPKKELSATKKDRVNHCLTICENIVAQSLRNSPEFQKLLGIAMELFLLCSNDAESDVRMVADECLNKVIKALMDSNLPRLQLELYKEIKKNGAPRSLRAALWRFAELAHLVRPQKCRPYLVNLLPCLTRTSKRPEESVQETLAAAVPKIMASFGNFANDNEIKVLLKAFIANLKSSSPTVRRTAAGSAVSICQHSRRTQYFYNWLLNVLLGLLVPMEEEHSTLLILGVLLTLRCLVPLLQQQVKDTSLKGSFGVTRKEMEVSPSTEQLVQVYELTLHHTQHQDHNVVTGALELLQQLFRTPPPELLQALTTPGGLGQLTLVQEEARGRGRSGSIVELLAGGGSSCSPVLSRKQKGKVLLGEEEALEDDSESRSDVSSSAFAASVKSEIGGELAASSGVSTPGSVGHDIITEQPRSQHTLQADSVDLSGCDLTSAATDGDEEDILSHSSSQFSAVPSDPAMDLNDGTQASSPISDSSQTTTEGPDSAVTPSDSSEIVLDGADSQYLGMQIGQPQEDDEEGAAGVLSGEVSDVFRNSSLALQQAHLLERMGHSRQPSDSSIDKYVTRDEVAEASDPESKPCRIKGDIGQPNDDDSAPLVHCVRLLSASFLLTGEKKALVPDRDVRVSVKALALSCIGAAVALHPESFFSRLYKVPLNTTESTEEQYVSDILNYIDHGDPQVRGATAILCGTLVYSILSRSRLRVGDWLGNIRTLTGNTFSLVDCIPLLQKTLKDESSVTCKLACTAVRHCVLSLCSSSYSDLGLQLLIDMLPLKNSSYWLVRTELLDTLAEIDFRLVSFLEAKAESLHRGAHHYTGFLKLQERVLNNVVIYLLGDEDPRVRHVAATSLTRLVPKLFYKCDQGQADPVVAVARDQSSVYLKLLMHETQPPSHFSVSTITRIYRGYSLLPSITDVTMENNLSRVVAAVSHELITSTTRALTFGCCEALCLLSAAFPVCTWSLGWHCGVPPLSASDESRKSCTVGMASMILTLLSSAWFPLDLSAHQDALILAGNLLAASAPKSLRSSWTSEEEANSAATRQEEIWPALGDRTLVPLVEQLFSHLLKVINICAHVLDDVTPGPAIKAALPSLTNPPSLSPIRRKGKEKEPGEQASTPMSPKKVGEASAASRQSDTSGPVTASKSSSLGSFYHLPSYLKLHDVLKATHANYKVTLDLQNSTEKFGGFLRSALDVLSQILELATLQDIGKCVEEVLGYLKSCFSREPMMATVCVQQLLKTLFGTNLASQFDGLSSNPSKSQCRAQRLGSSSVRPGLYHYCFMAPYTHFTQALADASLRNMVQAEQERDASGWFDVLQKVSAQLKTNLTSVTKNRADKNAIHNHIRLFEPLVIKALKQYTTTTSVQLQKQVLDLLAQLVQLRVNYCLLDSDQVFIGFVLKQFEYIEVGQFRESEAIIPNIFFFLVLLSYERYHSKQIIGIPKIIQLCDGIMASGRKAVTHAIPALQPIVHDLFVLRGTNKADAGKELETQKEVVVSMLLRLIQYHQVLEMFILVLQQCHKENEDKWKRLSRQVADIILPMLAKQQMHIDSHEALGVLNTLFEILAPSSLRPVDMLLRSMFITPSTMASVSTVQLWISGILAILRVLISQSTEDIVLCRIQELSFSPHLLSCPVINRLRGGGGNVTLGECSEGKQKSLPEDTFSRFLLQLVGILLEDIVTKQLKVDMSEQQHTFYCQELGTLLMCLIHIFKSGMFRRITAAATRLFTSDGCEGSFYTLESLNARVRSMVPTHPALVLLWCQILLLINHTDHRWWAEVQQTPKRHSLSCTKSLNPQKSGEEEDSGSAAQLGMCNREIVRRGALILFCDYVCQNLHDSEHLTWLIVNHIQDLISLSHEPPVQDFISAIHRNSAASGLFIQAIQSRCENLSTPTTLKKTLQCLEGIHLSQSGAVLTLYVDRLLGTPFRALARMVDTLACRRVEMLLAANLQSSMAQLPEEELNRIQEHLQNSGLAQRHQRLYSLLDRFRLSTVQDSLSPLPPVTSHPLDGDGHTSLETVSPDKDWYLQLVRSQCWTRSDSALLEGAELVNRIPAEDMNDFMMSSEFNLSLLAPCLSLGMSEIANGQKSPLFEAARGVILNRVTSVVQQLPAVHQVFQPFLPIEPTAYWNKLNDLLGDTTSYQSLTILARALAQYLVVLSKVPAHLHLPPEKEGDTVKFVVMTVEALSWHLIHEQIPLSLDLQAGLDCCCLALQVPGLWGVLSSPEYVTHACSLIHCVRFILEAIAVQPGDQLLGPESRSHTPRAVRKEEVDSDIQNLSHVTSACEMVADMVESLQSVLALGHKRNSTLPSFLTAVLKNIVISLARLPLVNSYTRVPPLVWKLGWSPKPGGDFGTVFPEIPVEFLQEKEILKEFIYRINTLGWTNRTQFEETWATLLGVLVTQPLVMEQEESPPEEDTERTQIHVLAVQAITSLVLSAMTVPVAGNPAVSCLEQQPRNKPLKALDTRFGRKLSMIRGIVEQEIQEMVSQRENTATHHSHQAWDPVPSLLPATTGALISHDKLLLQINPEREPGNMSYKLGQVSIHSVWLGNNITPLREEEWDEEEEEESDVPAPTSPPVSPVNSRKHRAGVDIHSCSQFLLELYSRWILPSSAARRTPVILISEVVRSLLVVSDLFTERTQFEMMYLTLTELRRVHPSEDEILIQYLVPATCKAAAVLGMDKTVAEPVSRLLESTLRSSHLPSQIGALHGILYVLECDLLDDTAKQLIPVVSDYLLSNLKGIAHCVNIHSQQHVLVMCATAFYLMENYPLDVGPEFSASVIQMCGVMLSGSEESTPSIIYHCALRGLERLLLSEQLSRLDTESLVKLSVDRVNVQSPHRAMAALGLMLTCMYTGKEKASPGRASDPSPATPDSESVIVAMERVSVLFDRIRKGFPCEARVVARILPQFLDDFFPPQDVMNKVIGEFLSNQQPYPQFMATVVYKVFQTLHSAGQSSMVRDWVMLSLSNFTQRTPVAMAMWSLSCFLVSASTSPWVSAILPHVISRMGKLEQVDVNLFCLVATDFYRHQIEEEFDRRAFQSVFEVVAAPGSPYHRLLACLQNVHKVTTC
UniProt Q921F2: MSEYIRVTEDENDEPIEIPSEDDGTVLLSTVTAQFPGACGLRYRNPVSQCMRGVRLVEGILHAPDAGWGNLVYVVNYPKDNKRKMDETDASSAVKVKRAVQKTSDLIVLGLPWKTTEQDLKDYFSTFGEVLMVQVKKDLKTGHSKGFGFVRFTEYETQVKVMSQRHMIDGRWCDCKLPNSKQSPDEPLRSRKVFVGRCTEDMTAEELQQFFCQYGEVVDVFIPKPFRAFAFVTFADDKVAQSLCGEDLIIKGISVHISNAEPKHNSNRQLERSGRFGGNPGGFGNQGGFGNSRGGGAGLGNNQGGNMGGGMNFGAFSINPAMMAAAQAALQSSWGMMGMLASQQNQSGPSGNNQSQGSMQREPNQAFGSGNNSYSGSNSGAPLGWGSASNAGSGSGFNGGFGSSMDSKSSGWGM

TDP-43 (TAR DNA-binding protein, TARDBP) (from UniProt Q921F2 1-414)
binding: binds

— PMC11802453
